Test results from paper PMC4987143.
Results are given in words; binding and its absence hold for the method and conditions named. Binding seen in cells or lysates may run through a third protein. Some results given as binding are weak or reduced against the parent protein; the word gives no strength. Each block holds one binder with its values, some of them ahead of it.

What was measured:
[1] = biological target: T1, PTRF (polymerase I transcription and release factor) (mouse (endogenous in adipocytes)) (UniProt O54724); experiment: co-IP; immunoprecipitation with PTRF antibody from whole cell lysates (1% Triton X-100) of isolated mouse primary adipocytes stimulated by insulin for 0-60 min; SDS-PAGE and blots
T1 sequence: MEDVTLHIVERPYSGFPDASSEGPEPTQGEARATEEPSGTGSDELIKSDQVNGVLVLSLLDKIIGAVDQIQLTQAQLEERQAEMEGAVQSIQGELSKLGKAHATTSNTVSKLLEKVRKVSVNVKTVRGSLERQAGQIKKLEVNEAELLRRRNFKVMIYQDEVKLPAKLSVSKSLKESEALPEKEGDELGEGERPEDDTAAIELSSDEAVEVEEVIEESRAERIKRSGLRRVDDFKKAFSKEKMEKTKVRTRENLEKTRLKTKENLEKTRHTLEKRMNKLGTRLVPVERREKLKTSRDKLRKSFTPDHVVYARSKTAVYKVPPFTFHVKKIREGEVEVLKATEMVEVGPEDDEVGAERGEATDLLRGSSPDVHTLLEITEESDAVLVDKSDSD

[2] = biological target: T1, PTRF (polymerase I transcription and release factor) (mouse (endogenous in adipocytes)); experiment: co-IP; immunoprecipitation with PTRF antibody from sonicated nuclear fraction lysate (1% Triton X-100) of basal and insulin-stimulated adipocytes; blots for TTF1 and PTRF; PTRF null (KO) adipocytes as negative control

binding [1]: binds
B1: SDPR (Serum deprivation response protein, Cavin-2) (protein, UniProt Q63918 1-418)
chain: MGEDAAQAEKFQHPNTDMLQEKPSSPSPMPSSTPSPSLNLGSTEEAIRDNSQVNAVTVHTLLDKLVNMLDAVRENQHNMEQRQINLEGSVKGIQNDLTKLSKYQASTSNTVSKLLEKSRKVSAHTRAVRERLERQCVQVKRLENNHAQLLRRNHFKVLIFQEESEIPASVFVKEPVPSAAEGKEELADENKSLEETLHNVDLSSDDELPRDEEALEDSAEEKMEESRAEKIKRSSLKKVDSLKKAFSRQNIEKKMNKLGTKIVSVERREKIKKSLTPNHQKASSGKSSPFKVSPLSFGRKKVREGESSVENETKLEDQMQEDREEGSFTEGLSEASLPSGLMEGSAEDAEKSARRGNNSAVGSNADLTIEEDEEEEPVALQQAQQVRYESGYMLNSEEMEEPSEKQVQPAVLHVDQTA

binding [2]: binds
B2: TTF1 (polymerase I transcription termination factor 1) (protein, UniProt Q62187 1-859)
chain: MKGGTSKFKTHTETLYKKKKWSSVSEKRPQKCPSQCLESKQPQVSVLGKRRRASQTPAQETLESEWPQKAKRKKRRREPQTPAQETLESEWPQKAKKKKRRGEPQTPTQESLESEQPPVSLLGKRRRESQTPAQENSESEQPRKAKRRRKKRKGSQQPTSSLLKTPETFLKAKKTTSAHKKKKNSVLEVDMETGIILVDKENMENLLETSRKDVDIVYVDMSKGQRSAKVRETGELPAAKPQEHGCRELLGDVRSRKKQKHLQKVAPWDVVQGSQPESISLPPSEPLSSEDLEGKSTEAAVFCKKKSKKNVFRSQELEPIPDSLDDSETISERLDSTHHGGAVGAGEECESTKESHSIKKKSKKKKHKSVALATSSDSASVTDSKAKNALVDSSEGSGAVREEDVDHRPAEAEAQACSTEKHREAMQRLEPTHEEESNSESASNSAARHISEDRRESDDSDVDLGSAVRQLREFIPDIQERAATTIRRMYRDDLGRFKEFKAQGVAIRFGKFSAKENKQIEKNVQDFLSLTGIESADKLLYTDRYPEEKTLITNLKRKHAFRLHIGKGIARPWKLVYYRAKKIFDVNNYKGRYNEEDTKKLKAYHSLHGNDWKKIGAMVARSSLSVALKFSQIGGTRNQGAWSKAETQRLIKAVEDVILKKMSPQELRELDSKLQEDPEGRLSIVREKLYKGISWVEVEARVETRNWMQCKSKWTEILTKRMTHGGFVYRGVNALQAKITLIERLYELNVNDANEIDWEDLASAIGDVPPPFVQAKFYKLKAACVPFWQKKTFPEIIDYLYKNSLPLLKEKLDKKMKKKDGQIQTPAAPKQDFLFKDIFHCDDDSDEGSPEEPSASDVQ
